Earlier results as cited in patent US10201537B2 (INFLAMMATORY RESPONSE RESEARCH, INC., priority 2013, dated 2019).

Details: in vivo

time to peak plasma level: 0.9 h
Structure (SMILES): O=C(O)COCCN1CCN([C@H](c2ccccc2)c2ccc(Cl)cc2)CC1 [Levocetirizine]
